Assay in all cases: EMSA
For series [1], the target named is acetylated RprY (Ac-CoA treated) (Porphyromonas gingivalis ATCC 33277) (UniProt B2RK10). The settings on record: reduced complex, EMSA: 50 mM Tris-HCl pH 8.0, 750 mM KCl, 2.5 mM EDTA, 0.5% Triton-X, 2.5% glycerol, 1 mM DTT (RprY dilution buffer), 20 ul, 30 min, room temperature, recombinant protein, protein details: His (pET22b), label: DIG, probe letters rebuilt from the primers and the genome. (In general: A gel shift assay detects complexes by their altered migration in electrophoresis.)

Series [2] addresses CobB (UniProt B2RGM8). Conditions: CobB without RprY, no shifted complex; EMSA: 50 mM Tris-HCl pH 8.0, 750 mM KCl, 2.5 mM EDTA, 0.5% Triton-X, 2.5% glycerol, 1 mM DTT (RprY dilution buffer), 20 ul, 30 min, room temperature; recombinant protein; residues 1-234; label: DIG; probe letters rebuilt from the primers and the genome.
The target in series [3] is RprY treated with acetyl phosphate (phosphorylated) (Porphyromonas gingivalis ATCC 33277) (UniProt B2RK10). Conditions: 10 uM RprY, increasing AcP, increased complex formation; EMSA: 50 mM Tris-HCl pH 8.0, 750 mM KCl, 2.5 mM EDTA, 0.5% Triton-X, 2.5% glycerol, 1 mM DTT (RprY dilution buffer), 20 ul, 30 min, room temperature; recombinant protein; protein details: His (pET22b); label: DIG; probe letters rebuilt from the primers and the genome.

For series [4], the target named is RprY (Porphyromonas gingivalis ATCC 33277) (UniProt B2RK10). The settings on record: EMSA: 50 mM Tris-HCl pH 8.0, 750 mM KCl, 2.5 mM EDTA, 0.5% Triton-X, 2.5% glycerol, 1 mM DTT (RprY dilution buffer), 20 ul, 30 min, room temperature, recombinant protein, protein details: His (pET22b), label: DIG, probe letters rebuilt from the primers and the genome.

For some of these results: A negative result means that nothing was seen under these conditions. For some of these results: Construct, isoform or probe ends are uncertain for at least one entry. For some of these results: Weaker means in comparison with the reference protein, sequence or condition of that experiment.

Take “ACTCTGCACAGGATGGGAGTGCTCGTAATGGCTTCTAAAGTGCTGATTTGCTACCTCTTATAGTTGGCAAACAGTGTAAAAACTTTCTTTCGATAAAGACCTGCGGAATATGGGTGCAAAAGGTCGGAAAAAACTATGTGGAAATTTTTCCTCAAATGCCTCCATACTTATAGGTATATATAGGGGAAAAAGCTACTTTTGCGACACAAATTGGAATAATAATTCTGTGTC (double strand) [nqrA promoter]”: the binding result in series [1] (10 uM RprY, increasing lower Ac-CoA concentrations) is given as “binds more weakly”; in series [1] (Ac-CoA, without CobB), “binds more weakly”; in series [2], “no binding”; in series [3] it was “binds”; in series [4] (5-15 uM RprY, concentration dependent, excess unlabelled promoter competed), “binds”; in series [4] (Ac-CoA with CobB and NAD+ (deacetylation), shifted complexes) it was “binds”. In addition, the binding result in series [4] (unacetylated RprY with CobB present, complex not prevented) is “binds”.

Source of the values: article PMC6032018, “Post-translational regulation of a Porphyromonas gingivalis regulator” (Journal of Oral Microbiology, 2018).
